# Laboratory results taken from PubChem BioAssay AID2517 (National Center for Advancing Translational Sciences (NCATS), 2010).
# The chains behind the UniProt entries cited, without tags or fusion partners.
# UniProt P27695, whole entry, looked up: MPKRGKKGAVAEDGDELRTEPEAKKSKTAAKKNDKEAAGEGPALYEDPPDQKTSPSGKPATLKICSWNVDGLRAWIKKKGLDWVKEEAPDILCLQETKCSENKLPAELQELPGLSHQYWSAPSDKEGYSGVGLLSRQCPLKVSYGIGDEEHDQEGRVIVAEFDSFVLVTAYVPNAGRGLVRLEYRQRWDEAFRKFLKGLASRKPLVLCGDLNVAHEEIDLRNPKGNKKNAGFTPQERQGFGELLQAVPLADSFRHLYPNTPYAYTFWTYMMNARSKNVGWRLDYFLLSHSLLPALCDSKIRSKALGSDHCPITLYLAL
# The campaign covered roughly 350,000 compounds. About 1,200 (0.34%) were called active. The inconclusive results got no clear call from the source; some entries with a clear call stand among them for comparison. Calls come from the whole dose curve; as a rule, active = well fitted inhibition curve with a large enough effect; inconclusive = small, poorly fitted or top-dose-only effect; inactive = no such curve, though single readings can be large or run the other way. Potencies beside an inconclusive call are fits to weak or partial responses and may not hold up.
# Biological target: DNA repair nuclease/redox regulator APEX1 (Homo sapiens) (UniProt P27695)
# Assay: qHTS Assay for Inhibitors of the Human Apurinic/apyrimidinic Endonuclease 1 (APE1); note: nearly all actives have a fitted effect of over 55% in size
# Conditions: recombinant APE1, TAMRA/BHQ-2 abasic DNA cleavage fluorescence; series mostly up to 65.8 µM
# Summary of the method: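 Step 1: APE1 (0.75 nM) with compound, 15 min RT. Step 2: add 50 nM fluorophore/quencher THF duplex. Step 3: three fluorescence reads 60 s apart (525/598 nm); read 3 minus read 1 = reaction progress.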
# Potency is the fitted concentration of half-maximal effect.
row,Structure (SMILES),Potency
1,Nc1cc(=O)[nH]c(SCC(=O)Nc2nnc(-c3ccccc3)s2)n1,"inconclusive: 31.6 µM [inhibitor, single point]"
2,COc1ccc(C(=O)Nc2cccc(/C=C(\CCC(=O)O)c3nc4ccccc4s3)c2)cc1,"inconclusive: 12.6 µM [inhibitor, partial curve]"
3,C=C(C)C(=O)Nc1cccc(C2=NOC3(C2)C[C@H](C(N)=O)N(C(=O)CC#N)C3)c1 (some centres undefined),"inconclusive: 25.1 µM [inhibitor, partial curve]"
4,c1cncc(-c2nc(-c3ccc4c(c3)OCCO4)cs2)c1,inactive
5,O=C(NNc1c(Cl)cc(Cl)cc1Cl)c1n[nH]c(=O)c2ccccc12,"inconclusive: 10 µM [inhibitor, single point]"
6,CCc1ccc(-n2c(=O)c3ccccc3n(CC(=O)NCc3ccco3)c2=O)cc1,"inconclusive: 44.7 µM [inhibitor, single point]"
7,O=C1S/C(=C\C=C\c2ccco2)C(=O)N1c1ccccc1,active: 28.2 µM
8,CC(C)Cn1c(-c2cccs2)nc2nc3ccccc3nc21,inactive
9,O=C1NC(=Nc2ccccc2Cl)S/C1=C\c1cccc([N+](=O)[O-])c1O,inactive
10,Cc1ccccc1NC(=O)Cc1nc(COC(=O)c2ccc(NC(N)=O)cc2)cs1,inactive
11,Cn1c(-c2ccc3c(c2)OCO3)cnc1N,"inconclusive: 39.8 µM [inhibitor, single point]"
12,COc1c(O)ccc(/C=N/NC(=O)c2ccc3c(c2)OCCO3)c1[N+](=O)[O-],"inconclusive: 0.199 µM [inhibitor, full curve, poor fit]"
13,Cc1nc2ncnn2c(C)c1Cc1ccc(Cl)cc1F,"inconclusive: 7.94 µM [inhibitor, single point]"
14,O=C1C(Nc2ccccc2)=C/C(=N/S(=O)(=O)c2cccs2)c2ccccc21,"inconclusive: 8.91 µM [inhibitor, partial curve, poor fit]"
15,CC(=O)N=C1SC2CS(=O)(=O)CC2N1c1ccc(-c2nc3ccc(C)cc3s2)cc1 (centres undefined),inactive
16,COc1ccc(Cl)cc1-c1n[nH]c(=S)n1C1CCCCC1,inactive
17,CSc1nc2n(n1)C(c1cc(Br)ccc1F)C(C(=O)N(C)C)=C(C)N2 (centres undefined),"inconclusive: 0.0316 µM [inhibitor, full curve, poor fit]"

# Part of the list above, bar-delimited.
row | Structure (SMILES) | Potency
15 | CC(=O)N=C1SC2CS(=O)(=O)CC2N1c1ccc(-c2nc3ccc(C)cc3s2)cc1 (centres undefined) | inactive
16 | COc1ccc(Cl)cc1-c1n[nH]c(=S)n1C1CCCCC1 | inactive
17 | CSc1nc2n(n1)C(c1cc(Br)ccc1F)C(C(=O)N(C)C)=C(C)N2 (centres undefined) | inconclusive: 0.0316 µM [inhibitor, full curve, poor fit]

# (continued)

row,Structure (SMILES),Potency
1,COc1ccc(NC(=S)N/N=C2\CC(C)(C)Oc3ccc(O)cc32)cc1,"inconclusive: 44.7 µM [inhibitor, single point]"
2,Cc1ccccc1N1CCN(C(=O)c2ccc(Oc3ccc(C(F)(F)F)cn3)cc2)CC1,"inconclusive: 5.01 µM [inhibitor, partial curve]"
3,CC(C)(C)c1csc(Sc2ncccc2[N+](=O)[O-])n1,"inconclusive: 11.2 µM [inhibitor, partial curve, poor fit]"
4,Cc1ccc(NCc2ccc(O)c3ncccc23)cc1C,inactive
5,c1ccc(CCc2nn3c(-c4ccncc4)nnc3s2)cc1,"inconclusive: 25.1 µM [inhibitor, partial curve, poor fit]"
6,CC(=O)Nc1ccc(NC(=O)COC(=O)c2ccc([N+](=O)[O-])o2)cc1,inactive
7,C#CCOCCOCCOCCNc1nc(N2CCN(C(=O)[C@H](CCC(=O)O)n3cc(C(N)CO)nn3)CC2)nc(N2CCN(C(=O)[C@H](CCC(=O)O)n3cc(C(N)[C@H](C)CC)nn3)CC2)n1 (some centres undefined),inactive
8,COc1ccc(OCCSc2nc(N)cc(N)n2)cc1,"inconclusive: 44.7 µM [inhibitor, single point]"
9,O=C(COc1ccc(Cl)cc1)NCCSCc1cccc(Cl)c1,"inconclusive: 44.7 µM [inhibitor, single point]"
10,CCOCCCNC(=O)N[C@@H](Cc1ccccc1)C(=O)OC,"inconclusive: 44.7 µM [inhibitor, single point]"
11,O=C(O)c1ccc2c(c1)N(Cc1ccc(F)cc1)C(=O)c1ccccc1S2,"inconclusive: 0.0447 µM [inhibitor, full curve, poor fit]"
12,COc1ccccc1N1CC(C(=O)Nc2nnc(SC)s2)CC1=O (centres undefined),"inconclusive: 23.8 µM [inhibitor, single point]"
13,O=Cc1ccc(-n2cncn2)cc1,"inconclusive: 5.62 µM [inhibitor, full curve, poor fit]"
14,CCCC1=NN2C(=N)/C(=C\c3ccc(SCc4ccco4)o3)C(=O)N=C2S1,active: 3.98 µM
15,CN1C(c2ccc(F)cc2)=CS/C1=C(\C#N)c1nnc2n1-c1ccccc1SC2,"inconclusive: 0.794 µM [inhibitor, single point]"
16,CO[C@@H]1COC(=O)C/C=C\[C@@H](C)COC(=O)[C@H](Cc2ccccc2)NC(=O)C/C=C\[C@H]1C,"inconclusive: 3.16 µM [inhibitor, single point]"
17,Cc1ccc(NC(=O)c2scc3c2CCCC3)cc1,"inconclusive: 44.7 µM [inhibitor, single point]"
